Reference: publication PMC12669676
Results are given in words; binding and its absence hold for the method and conditions named. Binding seen in cells or lysates may run through a third protein. Binding can be weak; no strength is given. Tags and fused reporters may be left off the sequences shown.

Molecular target: T1, Phf10-HA (wild type, zebrafish Phf10/Baf45a) (zebrafish) (UniProt Q6NWE1)
T1 sequence: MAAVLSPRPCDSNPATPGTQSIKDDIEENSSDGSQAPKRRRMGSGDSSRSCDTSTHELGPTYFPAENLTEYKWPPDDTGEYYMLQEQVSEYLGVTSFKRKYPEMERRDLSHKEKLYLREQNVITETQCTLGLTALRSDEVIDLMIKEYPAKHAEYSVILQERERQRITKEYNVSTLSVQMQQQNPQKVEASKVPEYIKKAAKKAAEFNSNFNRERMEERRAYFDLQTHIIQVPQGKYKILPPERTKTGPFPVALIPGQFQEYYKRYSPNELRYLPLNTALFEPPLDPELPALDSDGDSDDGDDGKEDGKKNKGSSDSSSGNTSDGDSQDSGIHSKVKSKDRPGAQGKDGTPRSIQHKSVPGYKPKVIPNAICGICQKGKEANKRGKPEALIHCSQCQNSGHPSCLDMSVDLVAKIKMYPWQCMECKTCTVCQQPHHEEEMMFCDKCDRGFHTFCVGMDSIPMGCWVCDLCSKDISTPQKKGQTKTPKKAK
Assay: co-IP; anti-HA antibody (5 ug) immobilised with the Pierce Co-Immunoprecipitation Kit; RIPA lysates of about 200 zebrafish embryos at 6 hpf co-injected with bckdk mRNA and Phf10-HA or GFP-HA mRNA; incubated overnight at 4 °C; eluates blotted with anti-Bckdk antibody

binding: binds
Substance: Branched-chain ketoacid dehydrogenase kinase, Bckdk (zebrafish) (enzyme)
